Test results as given in PMC2267177.
These are yes or no findings as the source states them, for the method shown. Binding seen in cells or lysates may run through a third protein. Some binding calls cover weakened binding; strength is not graded here. Tags and fused reporters may be left off the sequences shown.

Biological target: T1, DET1 (De-ETiolated1), tomato, N-terminally 6xMYC-tagged (tomato) (UniProt Q9ZNU6)
T1 sequence: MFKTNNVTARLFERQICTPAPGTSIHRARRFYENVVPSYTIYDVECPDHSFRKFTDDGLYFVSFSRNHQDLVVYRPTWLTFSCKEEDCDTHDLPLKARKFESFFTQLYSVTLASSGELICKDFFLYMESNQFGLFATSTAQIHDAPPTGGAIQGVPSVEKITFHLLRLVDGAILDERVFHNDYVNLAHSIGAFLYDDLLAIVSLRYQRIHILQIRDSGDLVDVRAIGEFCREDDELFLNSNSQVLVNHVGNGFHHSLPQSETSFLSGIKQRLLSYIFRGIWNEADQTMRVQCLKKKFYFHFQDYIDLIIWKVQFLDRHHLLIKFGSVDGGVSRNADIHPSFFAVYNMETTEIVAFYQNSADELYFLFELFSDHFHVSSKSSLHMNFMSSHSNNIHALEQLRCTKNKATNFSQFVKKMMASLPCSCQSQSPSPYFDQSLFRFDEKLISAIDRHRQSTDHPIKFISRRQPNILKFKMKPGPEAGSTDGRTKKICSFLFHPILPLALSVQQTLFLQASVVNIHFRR
Assay: co-IP; total protein extracts of co-infiltrated N. benthamiana leaves; rabbit anti-Myc antibody overnight at 4°C in lysis buffer (50 mM Tris pH 7.8, 10 mM EDTA, 300 mM sucrose, 100 mM NaCl, 1 mM DTT), protein-A Sepharose 2 h at 4°C, three washes with lysis buffer; western blot with anti-HA

B1: DDB1 (UV-Damaged DNA Binding protein 1), tomato, N-terminally 3xHA-tagged (protein, UniProt Q6QNU4 1-1090)
chain: MSVWNYVVTAHKPTNVTHSCVGNFTGPQELNLIIAKCTRIEIHLLTPQGLQPMLDVPIYGRIATLELFRPHGETQDLLFIATERYKFCVLQWDTEASEVITRAMGDVSDRIGRPTDNGQIGIIDPDCRLIGLHLYDGLFKVIPFDNKGQLKEAFNIRLEELQVLDIKFLYGCPKPTIVVLYQDNKDARHVKTYEVSLKDKDFIEGPWAQNNLDNGASLLIPVPPPLCGVLIIGEETIVYCSASAFKAIPIRPSITRAYGRVDADGSRYLLGDHNGLLHLLVITHEKEKVTGLKIELLGETSIASTISYLDNAFVFIGSSYGDSQLVKLNLQPDTKGSYVEVLERYVNLGPIVDFCVVDLERQGQGQVVTCSGAYKDGSLRIVRNGIGINEQASVELQGIKGMWSLRSATDDPYDTFLVVSFISETRVLAMNLEDELEETEIEGFNSQVQTLFCHDAVYNQLVQVTSNSVRLVSSTSRDLKNEWFAPVGYSVNVATANATQVLLATGGGHLVYLEIGDGVLNEVKYAKLDYDISCLDINPIGENPNYSNIAAVGMWTDISVRIYSLPDLNLITKEQLGGEIIPRSVLMCSFEGISYLLCALGDGHLLNFVLSMSTGELTDRKKVSLGTQPITLRTFSSKDTTHVFAASDRPTVIYSSNKKLLYSNVNLKEVSHMCPFNVAAFPDSLAIAKEGELTIGTIDEIQKLHIRSIPLGEHARRISHQEQTRTFALCSVKYTQSNADDPEMHFVRLLDDQTFEFISTYPLDQFEYGCSILSCSFSDDSNVYYCIGTAYVMPEENEPTKGRILVFIVEDGKLQLIAEKETKGAVYSLNAFNGKLLAAINQKIQLYKWASREDGGSRELQTECGHHGHILALYVQTRGDFIVVGDLMKSISLLIFKHEEGAIEERARDYNANWMSAVEILDDDIYLGAENNFNLFTVRKNSEGATDEERSRLEVVGEYHLGEFVNRFRHGSLVMRLPDSDVGQIPTVIFGTVNGVIGVIASLPHDQYLFLEKLQTNLRKVIKGVGGLSHEQWRSFYNEKKTVDAKNFLDGDLIESFLDLSRNRMEEISKAMSVPVEELMKRVEELTRLH
- binding: binds
